We go through four compounds from the odorant receptor screen of Mainland et al. (2015).

Assay in all cases: odorant receptor activation (CRE luciferase / Renilla) (fold of no-odor wells); higher = more activation
What all share (conditions): 100 µM

Experiment [1] relates to OR2J2 Y74H/T111A/V146A/T218A clone 1402.
The test system of experiment [2] is OR2J2 clone 1403.
In experiment [3] the test system is OR2J2 clone 1404.
Experiment [4] has as its system OR2J3 I228V/M261I clone 1616.
In experiment [5] the test system is OR2K2 clone 1340.
For experiment [6], the system named is OR2K2 clone 1450.
Experiment [7] relates to OR2L13 clone 1481.
Experiment [8] deals with OR2L2 clone 1465.
In experiment [9] the test system is OR2L3 clone 1526.
The test system of experiment [10] is OR2L5 clone 1697.
The test system of experiment [11] is OR2L8 clone 1515.
For experiment [12], the system named is OR2M2 R220G/C235R clone 1494.
Experiment [13] concerns OR2M3 clone 1054.
Experiment [14] deals with OR2M4 clone 1053.
Experiment [15] has as its system OR2M5 clone 1167.
The subject of experiment [16] is OR2M7 F35L/V78A/C178F clone 1378.
Experiment [17] has as its system OR2M7 F35L/V78A/C178F/D191N clone 1401.
Experiment [18] deals with OR2M7 clone 1377.
In experiment [19] the test system is OR2S2 clone 1462.
Experiment [20] relates to OR2T1 P132L clone 1474.

SMILES strings stand for the structures. Values joined by “and” are separate entries in the source; they are usually repeats but may differ in a detail not shown here. Identical values can stand only once. Some of the results follow. Single wells; the ratio to wells without odorant was worked out here, and repeats agree poorly.

On to `CCC(C)=O` [2-butanone], for which the odorant receptor activation in experiment [1] is 0.855; in [2], 0.659; in experiment [3], 1.21; in experiment [4] it was 1.31; in experiment [5], 0.514; in experiment [6], 0.861. The odorant receptor activation in [7] is 0.95; in experiment [8] it was 1.11; in experiment [9], 1.19; in experiment [10], 0.831; in experiment [11], 1.44; in experiment [12], 0.971. The odorant receptor activation in experiment [13] was determined as 2.09; in [14], 3.62; in experiment [15], 1.12; in experiment [16], 1.32; in experiment [17], 0.931; in experiment [18], 1.12. For the same compound, the results for the odorant receptor activation in [19] and in experiment [20] were 1.07 and 0.94, respectively.

For `CCOc1cc(C=O)ccc1O` [ethyl vanillin], the odorant receptor activation is 0.991 and 1.3 in [1]; 1.33 and 1.3 in experiment [2]; 2.01 and 2.64 in experiment [3]; 1.8 in experiment [4]; 3.29 and 1.12 in experiment [5]; 1.32 and 2.95 and 1.26 in experiment [6]. Also, the odorant receptor activation is 1.17 and 1.72 and 1.26 in experiment [7]; 1.11 and 1.93 and 1.27 in experiment [8]; 1.26 and 1.9 and 1.21 in experiment [9]; 0.871 in experiment [10]; 1.03 and 2.13 and 1.19 in experiment [11]; 1.3 and 1.96 and 1.08 in experiment [12]. Also, the odorant receptor activation in [13] is 1.26 and 1.1; in experiment [14], 1.69 and 1.03; in [15], 1.39 and 1.05; in experiment [16], 0.959 and 1.41; in experiment [17] it was 1.28 and 1.03; in experiment [18], 0.869 and 0.981. The odorant receptor activation in [19] was 0.853 and 2.51 and 1.25; in experiment [20], 1.25 and 1.5 and 1.06.

In the case of `CCCCOC(C)=O` [butyl acetate], the odorant receptor activation turned out to be 0.287 in experiment [1]; 0.31 in experiment [2]; 0.334 in experiment [3]; 0.854 in experiment [4]; 0.816 in [5]; 0.206 in experiment [6]. Also, the odorant receptor activation stood at 0.84 in experiment [7]; 1.05 in experiment [8]; 1.13 in experiment [9]; 0.518 in [10]; 1.6 in [11]; 0.774 in experiment [12]. The odorant receptor activation in experiment [13] was found to be 1.03; in experiment [14], 1.3; in experiment [15] it was 1.03; in experiment [16] it was 0.213; in experiment [17] it was 0.247; in experiment [18], 0.192. Moreover, the odorant receptor activation in experiment [19] was found to be 0.751; in experiment [20], 0.855.

As for `CS` [methanethiol], the odorant receptor activation stood at 0.907 in [1]; 0.852 in [2]; 0.892 in [3]; 0.675 in experiment [4]; 0.83 in experiment [5]; 0.85 in [6]. The odorant receptor activation in [7] was 0.676; in experiment [8] it was 0.995; in experiment [9] it was 1.09; in [10] it was 0.601; in experiment [11], 0.877; in [12], 0.95. The odorant receptor activation in [13] came to 1.23; in [14], 1.45; in experiment [15], 0.819; in experiment [16], 0.928; in experiment [17], 0.914; in [18] it was 0.998. The odorant receptor activation in [19] came out at 0.818; in experiment [20], 0.939.
